Experimental data: article PMC6336817
These are yes or no findings as the source states them, for the method shown. For some of these results: Binding seen in cells or lysates may run through a third protein. Some binding calls cover weakened binding; strength is not graded here.

The chains behind the UniProt entries cited, without tags or fusion partners.
UniProt P84022: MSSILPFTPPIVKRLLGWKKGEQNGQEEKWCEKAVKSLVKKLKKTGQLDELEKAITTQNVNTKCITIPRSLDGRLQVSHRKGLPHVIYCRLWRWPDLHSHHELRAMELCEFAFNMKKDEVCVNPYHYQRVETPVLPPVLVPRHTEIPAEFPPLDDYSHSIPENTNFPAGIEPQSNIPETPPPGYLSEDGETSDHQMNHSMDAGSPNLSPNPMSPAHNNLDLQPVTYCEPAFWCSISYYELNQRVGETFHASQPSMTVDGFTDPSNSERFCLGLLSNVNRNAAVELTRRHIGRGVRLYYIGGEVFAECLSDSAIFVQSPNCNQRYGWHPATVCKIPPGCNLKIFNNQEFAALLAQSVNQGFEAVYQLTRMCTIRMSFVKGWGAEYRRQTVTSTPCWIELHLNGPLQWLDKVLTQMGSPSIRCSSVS
UniProt Q16665: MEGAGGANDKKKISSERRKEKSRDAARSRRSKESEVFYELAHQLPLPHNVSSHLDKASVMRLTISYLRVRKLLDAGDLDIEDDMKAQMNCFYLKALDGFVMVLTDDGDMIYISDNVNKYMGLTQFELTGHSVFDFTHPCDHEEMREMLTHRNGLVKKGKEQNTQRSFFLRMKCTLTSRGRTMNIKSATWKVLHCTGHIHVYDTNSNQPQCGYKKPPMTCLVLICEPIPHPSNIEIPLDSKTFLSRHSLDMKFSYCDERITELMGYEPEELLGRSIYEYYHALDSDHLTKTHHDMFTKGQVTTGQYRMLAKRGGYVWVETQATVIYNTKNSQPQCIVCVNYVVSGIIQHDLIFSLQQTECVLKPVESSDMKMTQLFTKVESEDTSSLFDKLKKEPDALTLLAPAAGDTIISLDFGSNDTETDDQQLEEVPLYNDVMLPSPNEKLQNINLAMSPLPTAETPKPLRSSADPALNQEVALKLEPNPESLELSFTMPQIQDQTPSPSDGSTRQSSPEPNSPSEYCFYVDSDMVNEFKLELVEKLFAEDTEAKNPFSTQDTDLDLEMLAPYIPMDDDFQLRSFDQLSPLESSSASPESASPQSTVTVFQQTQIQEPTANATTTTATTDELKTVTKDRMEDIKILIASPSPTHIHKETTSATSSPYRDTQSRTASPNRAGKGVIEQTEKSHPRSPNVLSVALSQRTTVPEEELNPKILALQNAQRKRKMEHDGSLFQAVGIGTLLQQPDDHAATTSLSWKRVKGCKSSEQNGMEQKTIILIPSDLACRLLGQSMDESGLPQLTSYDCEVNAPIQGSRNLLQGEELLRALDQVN
UniProt Q99814: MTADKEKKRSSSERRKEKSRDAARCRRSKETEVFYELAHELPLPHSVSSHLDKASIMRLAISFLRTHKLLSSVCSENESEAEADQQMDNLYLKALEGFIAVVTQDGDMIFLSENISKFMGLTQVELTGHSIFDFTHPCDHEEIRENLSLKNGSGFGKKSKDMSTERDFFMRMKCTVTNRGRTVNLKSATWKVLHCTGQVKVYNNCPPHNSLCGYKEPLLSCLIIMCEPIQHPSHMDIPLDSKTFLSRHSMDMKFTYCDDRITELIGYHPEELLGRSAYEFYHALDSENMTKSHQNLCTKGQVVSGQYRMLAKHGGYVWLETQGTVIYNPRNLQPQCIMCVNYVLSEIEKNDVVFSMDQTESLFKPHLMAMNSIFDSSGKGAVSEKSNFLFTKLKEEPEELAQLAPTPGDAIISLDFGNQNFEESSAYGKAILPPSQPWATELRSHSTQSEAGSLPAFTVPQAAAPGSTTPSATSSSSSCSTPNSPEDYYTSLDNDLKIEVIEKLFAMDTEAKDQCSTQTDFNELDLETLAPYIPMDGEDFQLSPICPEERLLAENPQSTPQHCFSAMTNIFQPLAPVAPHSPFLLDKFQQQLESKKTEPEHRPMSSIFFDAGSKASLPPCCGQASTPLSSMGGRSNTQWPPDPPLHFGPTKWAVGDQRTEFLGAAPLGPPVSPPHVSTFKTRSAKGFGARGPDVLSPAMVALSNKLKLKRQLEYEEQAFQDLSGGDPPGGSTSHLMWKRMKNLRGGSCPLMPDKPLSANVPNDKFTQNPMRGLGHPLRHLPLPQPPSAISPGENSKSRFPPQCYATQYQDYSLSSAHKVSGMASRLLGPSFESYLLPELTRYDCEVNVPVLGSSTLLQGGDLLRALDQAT

T1: ONECUT2 (human) (UniProt O95948)
T1 sequence: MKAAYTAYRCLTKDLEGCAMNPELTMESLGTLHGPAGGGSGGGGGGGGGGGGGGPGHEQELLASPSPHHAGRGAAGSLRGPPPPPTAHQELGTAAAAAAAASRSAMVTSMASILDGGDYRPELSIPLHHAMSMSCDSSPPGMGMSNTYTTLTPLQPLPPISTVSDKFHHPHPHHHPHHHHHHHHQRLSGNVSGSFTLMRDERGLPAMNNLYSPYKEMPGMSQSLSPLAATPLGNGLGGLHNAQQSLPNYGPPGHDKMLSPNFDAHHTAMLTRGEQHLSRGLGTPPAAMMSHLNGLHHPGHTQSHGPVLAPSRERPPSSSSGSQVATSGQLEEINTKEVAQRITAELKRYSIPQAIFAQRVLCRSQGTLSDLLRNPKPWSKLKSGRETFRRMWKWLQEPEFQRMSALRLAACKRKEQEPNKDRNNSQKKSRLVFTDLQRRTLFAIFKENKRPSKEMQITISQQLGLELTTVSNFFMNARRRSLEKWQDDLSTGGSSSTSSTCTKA


Columns and labels:
[1] = biological target: T1, ONECUT2 (human); assay: co-IP; ONECUT2 or HIF1α immunoprecipitated, western blot for the other protein; cells, buffers and conditions not told; no figure is cited
[2] = biological target: SMAD3 (human (endogenous in PC3)) (UniProt P84022); assay: ChIP-re-ChIP-Seq; formaldehyde cross-linked chromatin of PC3 cells under hypoxic conditions; complexes of the first immunoprecipitation eluted with 20 mM dithiothreitol at 37 °C, diluted 30~50 fold, second immunoprecipitation, sequencing; read out as peaks that overlap both single ChIP-Seq sets
[3] = biological target: HIF1α (human (endogenous in PC3)) (UniProt Q16665); assay: co-IP; ONECUT2 or HIF1α immunoprecipitated, western blot for the other protein; cells, buffers and conditions not told; no figure is cited

binding [1]	binding [2]	binding [3]	Molecule
no binding	binds	–	HIF1α (from UniProt Q16665 1-826)
–	no binding	–	HIF2α (from UniProt Q99814 1-870)
–	–	no binding	ONECUT2 (protein, UniProt O95948 1-504) MKAAYTAYRCLTKDLEGCAMNPELTMESLGTLHGPAGGGSGGGGGGGGGGGGGGPGHEQELLASPSPHHAGRGAAGSLRGPPPPPTAHQELGTAAAAAAAASRSAMVTSMASILDGGDYRPELSIPLHHAMSMSCDSSPPGMGMSNTYTTLTPLQPLPPISTVSDKFHHPHPHHHPHHHHHHHHQRLSGNVSGSFTLMRDERGLPAMNNLYSPYKEMPGMSQSLSPLAATPLGNGLGGLHNAQQSLPNYGPPGHDKMLSPNFDAHHTAMLTRGEQHLSRGLGTPPAAMMSHLNGLHHPGHTQSHGPVLAPSRERPPSSSSGSQVATSGQLEEINTKEVAQRITAELKRYSIPQAIFAQRVLCRSQGTLSDLLRNPKPWSKLKSGRETFRRMWKWLQEPEFQRMSALRLAACKRKEQEPNKDRNNSQKKSRLVFTDLQRRTLFAIFKENKRPSKEMQITISQQLGLELTTVSNFFMNARRRSLEKWQDDLSTGGSSSTSSTCTKA
